Reference: US4487718A (Kowa Company, Ltd., priority 1983, dated 1984)

Test: general procedure: Boc solid-phase peptide synthesis; benzhydrylamine resin
Conditions: whole synthesis, scale 1.0 mmol

Which results are given for “L-Asn-L-Gln-L-Glu-L-Gln-L-Val-L-Ser-L-Pro-L-Leu-L-Thr-L-Gly-L-Leu-L-Lys-NH”?
crude mass: 623 mg; isolated mass: 130 mg
